For the experiment, the system named is nude mice, LOX melanoma ip, survival T/C. The experiment can be described thus: NCI In Vivo Anticancer Drug Screen. Data for tumor model Human Amelanotic Melanoma (LOX) (intraperitoneal) in NU/NU BALB/C (nude) mice. As to conditions: T/C endpoint: median survival time, higher T/C = longer survival. On the procedure: The antitumor activity of compounds was measured in mice bearing transplantable tumors. Survival or tumor size were measured and the results are expressed as the measurement made in the treated group (T) divided by the measurement made in the vehicle treated control group (C). The tumor model used in this assay is Human Amelanotic Melanoma (LOX) (intraperitoneal) in NU/NU BALB/C (nude) mice

Setting [1] is: dose: 75.0 mg/kg/injection, schedule: Q04DX003 (ip), vehicle: Klucel (hydroxypropylcellulose) (HPC).
[2] abbreviates: dose: 150.0 mg/kg/injection, schedule: Q04DX003 (ip), vehicle: Klucel (hydroxypropylcellulose) (HPC).
The mark [3] stands for this setting: dose: 1200.0 mg/kg/injection, schedule: Q04DX003 (ip), vehicle: saline with Tween-80.
[4] abbreviates: dose: 600.0 mg/kg/injection, schedule: Q04DX003 (ip), vehicle: saline with Tween-80.
Setting [5] is: dose: 200.0 mg/kg/injection, schedule: Q04DX003 (ip), vehicle: saline with Tween-80.
Where [6] appears, read: dose: 50.0 mg/kg/injection, schedule: Q04DX003 (ip), vehicle: suspension in saline.
Setting [7] is: dose: 100.0 mg/kg/injection, schedule: Q04DX003 (ip), vehicle: suspension in saline.
[8] abbreviates: dose: 200.0 mg/kg/injection, schedule: Q04DX003 (ip), vehicle: suspension in saline.
Setting [9] is: dose: 400.0 mg/kg/injection, schedule: Q04DX003 (ip), vehicle: suspension in saline.

The list shows only some results of the screen, not a fair sample: it is rich in T/C values a quarter to a half above the control, in often repeated tests (any T/C) and in doses without a T/C. Further doses and runs are listed elsewhere. T/C: endpoint of the treated group in % of that of the vehicle group. Some entries give survivors of the animals treated and no T/C: the source files T/C as zero there, which appears to mark a toxic dose or a test without result, not a measured value. Some survivor counts are full or nearly so, which does not show that the dose was tolerated: the source hardly ever lists a survival T/C far under the control, and the zero likely stands for such cases as well. Survivors were counted at the toxicity check, usually on the fifth day, unless a day is given; later deaths do not show. Schedules are NCI's codes, read here as Q, the interval in days (D) or hours (H), X, the number of doses. Some doses were run more than once; their values stand side by side, smallest first. For survival time, the PubChem record calls one and a half times the control and up active, and a quarter to a half above the control has no call in these data; cut-offs in other NCI protocols can differ. Some T/C values are followed by the survivors on the day toxicity was checked, most often the fifth; without a count, all were alive then.

Regarding `O=[N+]([O-])c1ccc([I+]c2ccccc2)cc1`, the T/C (dose: 18.75 mg/kg/injection, schedule: Q04DX003 (ip), vehicle: Klucel (hydroxypropylcellulose) (HPC)) was 144 % of control; the T/C under setting [1] is 141 [5 of 6 alive on day 10] and 144 % of control [4 of 6 alive on day 10]. Also, the survivor count by setting is: (dose: 125.0 mg/kg/injection, schedule: Q04DX003 (ip), vehicle: Klucel (hydroxypropylcellulose) (HPC)) 0 of 6 on day 10 and 1 of 6 on day 10; under setting [2], 0 of 6 on day 10; (dose: 208.0 mg/kg/injection, schedule: Q04DX003 (ip), vehicle: Klucel (hydroxypropylcellulose) (HPC)) 1 of 6 on day 10.
Consider `CC1=C[P+](c2ccccc2)(c2ccccc2)C=C(c2ccccc2)O1`, for which the T/C is 125 % of control (dose: 0.75 mg/kg/injection, schedule: Q04DX003 (ip), vehicle: saline); 129 % of control (dose: 1.5 mg/kg/injection, schedule: Q04DX003 (ip), vehicle: saline); 134 % of control (dose: 6.0 mg/kg/injection, schedule: Q04DX003 (ip), vehicle: saline).
Consider `Nc1n[nH]c2ccccc12`, for which the survivor count is, setting by setting: (dose: 300.0 mg/kg/injection, schedule: Q04DX003 (ip), vehicle: other) 4 of 6 on day 10; (dose: 600.0 mg/kg/injection, schedule: Q04DX003 (ip), vehicle: other) 3 of 6 on day 10; (dose: 1200.0 mg/kg/injection, schedule: Q04DX003 (ip), vehicle: other) 0 of 6 on day 10.
Regarding `CCCCCC[Se][Se]CCCCCC`, under “dose: 600.0 mg/kg/injection, schedule: Q04DX003 (ip), vehicle: Klucel (hydroxypropylcellulose) (HPC)”, the survivor count is 0 of 6 on day 10.
Take `COc1cc(C(=O)N/N=C/c2cccc([N+](=O)[O-])c2)cc(OC)c1OC`: the survivor count (dose: 300.0 mg/kg/injection, schedule: Q04DX003 (ip), vehicle: saline with Tween-80) is on record as 3 of 6 on day 10.
As to `S=C(NCNC(=S)c1ccncc1)c1ccncc1`, under setting [3], the survivor count is reported as 2 of 6 on day 10.
For `S=C1CCCCN1`, the survivor count is given as 0 of 6 on day 10 (dose: 300.0 mg/kg/injection, schedule: Q04DX003 (ip), vehicle: distilled water + Tween-80 + alcohol) and 0 of 6 on day 10 (dose: 600.0 mg/kg/injection, schedule: Q04DX003 (ip), vehicle: distilled water + Tween-80 + alcohol).
For `O=CC(O)C(O)C(O)C(O)CO` (configuration not stated), the survivor count (dose: 600.0 mg/kg/injection, schedule: Q04DX003 (ip), vehicle: saline) is 6 of 6 on day 10.
Consider `S=c1sc2ccccc2n1CN1CCOCC1`, for which the survivor count is 5 of 6 on day 10 (dose: 150.0 mg/kg/injection, schedule: Q04DX003 (ip), vehicle: saline with Tween-80); 4 of 6 on day 10 under setting [4]; 1 of 6 on day 10 under setting [3].
Regarding `C/C(=N\NC(=S)N1CCN(c2ccccn2)CC1)c1ccccn1`, the survivor count (dose: 160.0 mg/kg/injection, schedule: Q04DX003 (ip), vehicle: water) is reported as 0 of 6 on day 10.
In the case of `COc1ccc2oc3c(ccc[n+]3C)c(=O)c2c1`, for the setting “dose: 800.0 mg/kg/injection, schedule: Q04DX003 (ip), vehicle: saline with Tween-80”, the survivor count is 1 of 6 on day 10.
As to `CC1C(c2ccccc2)OC(N2CCOCC2)C(C)(C)CN1C` (configuration not stated), the survivor count is on record as 0 of 6 on day 10 under setting [4] and 0 of 6 on day 10 under setting [3].
As for `CC(=O)N(C)c1ccc(Nc2cc(C)[nH]c3ccc4ncnc4c23)cc1`, the survivor count by setting is: (dose: 25.0 mg/kg/injection, schedule: Q04DX003 (ip), vehicle: saline with Tween-80) 5 of 5 on day 10; under setting [5], 0 of 6 on day 10; (dose: 278.0 mg/kg/injection, schedule: Q04DX003 (ip), vehicle: saline) 1 of 6 on day 10.
Regarding `Oc1ccc(/C=N/Nc2nnc(N/N=C/c3ccc(O)cc3O)c3ccccc23)c(O)c1`, the T/C was 131 % of control [4 of 6 alive on day 10] under setting [6], 131 % of control under setting [7] and 148 % of control under setting [8].
With `COC1CC2C=C(C)/C=C/C=C/C(=O)NC(c3ccccc3)C/C=C/CCC(O)CC(=O)C2=C1O` (configuration not stated), the T/C runs as follows: under setting [1], 125 % of control; under setting [2], 139 % of control. For the same compound, the survivor count (dose: 300.0 mg/kg/injection, schedule: Q04DX003 (ip), vehicle: Klucel (hydroxypropylcellulose) (HPC)) was 3 of 6 on day 10.
As to `CC1OC(O[C@H]2/C=C/C=C/C=C/C=C/C=C/C=C/C=C/[C@H](C)[C@@H](O)[C@@H](C)[C@H](C)OC(=O)C[C@H](O)C[C@H](O)CC[C@@H](O)[C@H](O)C[C@H](O)C[C@]3(O)C[C@H](O)[C@@H](C(=O)O)[C@H](C2)O3)C(O)C(N)C1O` (some centres not stated), the survivor count (dose: 50.0 mg/kg/injection, schedule: Q04DX003 (ip), vehicle: saline + Tween-80 + alcohol) is reported as 0 of 6 on day 10; the survivor count (dose: 100.0 mg/kg/injection, schedule: Q04DX003 (ip), vehicle: saline + Tween-80 + alcohol) is on record as 0 of 6 on day 10; the survivor count (dose: 200.0 mg/kg/injection, schedule: Q04DX003 (ip), vehicle: saline + Tween-80 + alcohol) is 0 of 6 on day 10; the survivor count (dose: 400.0 mg/kg/injection, schedule: Q04DX003 (ip), vehicle: saline + Tween-80 + alcohol) is listed as 0 of 6 on day 10.
For the compound `CCC1OC(OC)C=CC1=O` (configuration not stated), the survivor count under setting [8] was 0 of 6 on day 10 and the survivor count under setting [9] is given as 0 of 6 on day 10.
Regarding `CN(Cc1cnc2nc(N)nc(N)c2n1)c1ccc(C(=O)N[C@@H](CCC(=O)O)C(=O)O)cc1`, the T/C (dose: 0.75 mg/kg/injection, schedule: Q01DX015 (ip), vehicle: sodium bicarbonate) is 125 % of control; the T/C (dose: 80.0 mg/kg/injection, schedule: Q04DX003 (ip), vehicle: sodium bicarbonate) is 140 % of control; the T/C (dose: 160.0 mg/kg/injection, schedule: Q04DX003 (ip), vehicle: sodium bicarbonate) is 138 % of control [5 of 6 alive on day 10]; the T/C (dose: 400.0 mg/kg/injection, schedule: Q01DX001 (ip), vehicle: sodium bicarbonate) was 142 % of control. The survivor count (dose: 6.0 mg/kg/injection, schedule: Q01DX015 (ip), vehicle: sodium bicarbonate) is listed as 6 of 6 on day 10.
As to `Cc1ccc(C(=Nc2ccccc2)N=P(c2ccccc2)(c2ccccc2)c2ccccc2)cc1`, the survivor count under setting [5] is reported as 2 of 6 on day 10.
On to `COc1cccc(Sc2ccc([N+](=O)[O-])c3no[n+]([O-])c23)c1`, for which, under setting [4], the survivor count is given as 3 of 6 on day 10.
Take `Nc1ncc(C2OC(CO)C(O)C2O)c(=O)[nH]1` (configuration not stated): the T/C runs as follows: (dose: 500.0 mg/kg/injection, schedule: Q04DX003 (ip), vehicle: saline) 134 % of control; (dose: 1000.0 mg/kg/injection, schedule: Q04DX003 (ip), vehicle: saline) 144 % of control.
Regarding `CC/C(=C(\c1ccccc1)c1ccc(OCCN(C)C)cc1)c1ccccc1`, the survivor count (dose: 1200.0 mg/kg/injection, schedule: Q04DX003 (ip), vehicle: suspension in saline) is listed as 0 of 6 on day 10.
Consider `CC(=O)Nc1ccc(Nc2ccc(C(=C3C=CC(=[N+](C)CCC#N)C=C3)c3ccc(N(C)CCC#N)cc3)cc2)cc1`, for which the T/C is, setting by setting: (dose: 18.0 mg/kg/injection, schedule: Q04DX003 (ip), vehicle: suspension in saline) 125 % of control; (dose: 25.0 mg/kg/injection, schedule: Q04DX003 (ip), vehicle: suspension in saline) 133 % of control; under setting [6], 147 % of control; under setting [7], 126 % of control. The survivor count reads like this: (dose: 139.0 mg/kg/injection, schedule: Q04DX003 (ip), vehicle: suspension in saline) 3 of 6 on day 10; under setting [8], 1 of 6 on day 10; under setting [9], 1 of 4 on day 10.
With `CC(CNC(=O)C12CC3CC(CC(C3)C1)C2)NC(=O)C12CC3CC(CC(C3)C1)C2` (configuration not stated), where the note is “dose: 400.0 mg/kg/injection, schedule: Q04DX003 (ip), vehicle: DMSO”, the survivor count is 6 of 6 on day 10.

These data come from PubChem BioAssay AID280 (DTP/NCI, 2004).
